The exact form of at least one protein or probe is not confirmed. Tags and fusion partners may be left off the protein sequences shown.

Data set [1] has as its target T1, CosR (rCosR) (UniProt Q0PBF4).
T1 sequence (looked up, limits assumed): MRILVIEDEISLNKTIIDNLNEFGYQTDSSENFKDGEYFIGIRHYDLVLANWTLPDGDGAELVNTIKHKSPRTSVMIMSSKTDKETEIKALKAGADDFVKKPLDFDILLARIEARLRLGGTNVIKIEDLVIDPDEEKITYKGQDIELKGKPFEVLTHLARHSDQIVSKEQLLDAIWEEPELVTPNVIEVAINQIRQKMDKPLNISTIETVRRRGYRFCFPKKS
Kind of data set: DNase I footprinting. The conditions noted are these: footprinting: same buffer + 10 mM MgCl2, 40 ul, 37 C 10 min, recombinant protein, probe letters rebuilt from the primers and the genome.

The target in data set [2] is T1, CosR (rCosR). Put plainly: EMSA. The following applies: rCosR 0-3.2 nM, probe 0.2 nM; EMSA: 20 mM HEPES pH 7.6, 1 mM EDTA, 10 mM (NH4)2SO4, 5 mM DTT, 0.2% Tween 20, 30 mM KCl, 0.1 ug poly(dI-dC) in 10 ul, 37 C 15 min; recombinant protein; label: 32P; probe letters rebuilt from the primers and the genome. In general terms: Mobility shift assays separate free from complexed probe on a gel.

Data set [3] concerns the target T1, CosR (rCosR). Kind of data set: competition with a labelled probe. The following applies: EMSA: 20 mM HEPES pH 7.6, 1 mM EDTA, 10 mM (NH4)2SO4, 5 mM DTT, 0.2% Tween 20, 30 mM KCl, 0.1 ug poly(dI-dC) in 10 ul, 37 C 15 min, recombinant protein, label: 32P, probe letters rebuilt from the primers and the genome.

“GCTTGGAGTATTAGCTGCAAAAACATTAGCTGCGAAAGCACCTAGTAATGCTGAGATTAGTACAACTTTTTTCATATTTTCCTCCTTATGAATAATTTTTAGTTGCAAATTAATTGTAATTATTAAAAATCAACAAATAGATATTTTTTGTAAAAATATTTCAAAAAAATATAATTTTTTATATATATTTAAATTATTATTAAAATATATTATAAATGTATCTTATTTTATTTAGATTAAATAAATAGAAATTTTACCCACTAAGCTTTTAAGATATTTTTACTCTTTTTAATATTATTATGGTAATATTTTCAATATCAAACTAAAAATAAAGGAGAAATTATGTTTGAATTAAGAAAATTACCTTATGATACCAATGCTTTTGGTGATTTTTTGAGTGCTGAAACTTTTAGCTATCATCATGGAAAACATCACAATACTTATGTTACAAATCTAAATAATCTTATTAAAGATACTGAATTTGCAGGTAAAGATCT (double strand) [sodB promoter footprint probe]”: the binding result in the data set with CosR (rCosR) [1] (10 mM MgCl2, site BsodB, label: 5'-32P on S9 strand) is on record as “binds”.

For “AATACTACCGCTCCTTTTGGACCTATGTTTTTATAAAGATTAAAATCTTGAACAATTTCATTGTTTCCTAATACCGCTGGAGCAGTAAAATCTAAAGCTTTTTTAGTAACTATCATATTTTCTCCTAAATAATAAATTTTATTGATAACGAAATTATATCGTTTAAATCTTTATTTTTTTTTAAATATCTAAGATAATATTAAAAATTTAAAAAAGTTATAATTATTATCAAATAAGGTAAATTTTTGATTATCAAAATTTACTTTATTTAAGAATTTTATGCTAAAATCTTTTAAATCTTAATATTAAATAAGGAGAAAAAATGGCTGTAAAAATTACAGATATATGTATTGCTTGTGGTTCTTGTATTGATGAGTGTCCAGTGAATGCTATCGTTGATGAT (double strand) [ahpC promoter EMSA probe]”, the binding result with CosR (rCosR) [2] and in the data set with CosR (rCosR) [3] (unlabeled N4 competes with labeled N4) was “binds” in each case.

On to “ACTAGCACAAGCTGGTTGATCATTATGTCCTACGCATTCAACGCATTTGTTTGCATAGACATAATATCTATCTTCACCTTCTGGATTGTTAGTATCATCAACGATAGCATTCACTGGACACTCATCAATACAAGAACCACAAGCAATACATATATCTGTAATTTTTACAGCCATTTTTTCTCCTTATTTAATATTAAGATTTAAAAGATTTTAGCATAAAATTCTTAAATAAAGTAAATTTTGATAATCAAAAATTTACCTTATTTGATAATAATTATAACTTTTTTAAATTTTTAATATTATCTTAGATATTTAAAAAAAAATAAAGATTTAAACGATATAATTTCGTTATCAATAAAATTTATTATTTAGGAGAAAATATGATAGTTACTAAAAAAGCTTTAGATTTTACTGCTCCAGCGGTATTAGGAAACAATGAAATTGTTCAAGATTTTAATCTTTATAAAAACATAGGTCCAAAAGGAGCGGTAGTATT (double strand) [ahpC promoter footprint probe]”, for which the binding result with CosR (rCosR) [1] (10 mM MgCl2, site BahpC-1 (-37 to -17), label: 5'-32P on S17 strand) was “binds”; in the data set with CosR (rCosR) [1] (10 mM MgCl2, site BahpC-2 (+1 to +21), label: 5'-32P on S17 strand) it was “binds”.

“AAAGCTCCTGGTAAGGCCAAACAAGTGGGACAAACATTGGTATTTGGAGCTTCTCCAAAAGAAGTTGCACATGAGCAAAAGATTTTTGTTTTTGTATTTAACTGAGCATGAACTTCAAGACCTATAACTACTTCAAACATAAAATTTCCTTGAATTTTTAAATGTTTTATTTTATCTTTTTTTCTTTTAGAAAGGCTTTAAATATTAACTTTAAATGCTATAATTCTTAGACAATTTATATTTAAGGAGTTAAAATGCCATTATTAGACAGCTTTAAAGTTGACCATACTAAAATGCCAGCTCCTGCTGTGCGTTTAGCTAAAGTTATGAAAACACCTAAGGGTGATGATATTAGCGTATTTGATTTGCGT (double strand) [luxS promoter EMSA probe]”: the binding result in the data set with CosR (rCosR) [2] and in the data set with CosR (rCosR) [3] (unlabeled N3 competes with labeled N3) was “binds” each time.

The record behind these values is PMC3139631.
